Test results as given in publication PMC9691733.
Results are given in words; binding and its absence hold for the method and conditions named. Binding seen in cells or lysates may run through a third protein. Some entries that bind do so weakly or less than the wild type.

Amino acid sequences for entries named in this document (tags omitted).
UniProt Q9GZV5: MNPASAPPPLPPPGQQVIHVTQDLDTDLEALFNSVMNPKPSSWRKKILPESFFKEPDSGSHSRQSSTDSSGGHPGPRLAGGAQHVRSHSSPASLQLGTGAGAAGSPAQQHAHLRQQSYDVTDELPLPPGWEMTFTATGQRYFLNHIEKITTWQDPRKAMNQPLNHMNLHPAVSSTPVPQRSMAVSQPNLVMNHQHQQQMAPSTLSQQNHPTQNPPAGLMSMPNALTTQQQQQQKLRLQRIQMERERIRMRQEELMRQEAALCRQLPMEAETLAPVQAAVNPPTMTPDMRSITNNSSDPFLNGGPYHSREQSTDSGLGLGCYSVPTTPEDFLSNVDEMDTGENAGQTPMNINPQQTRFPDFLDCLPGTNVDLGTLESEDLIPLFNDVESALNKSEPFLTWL
UniProt P25786: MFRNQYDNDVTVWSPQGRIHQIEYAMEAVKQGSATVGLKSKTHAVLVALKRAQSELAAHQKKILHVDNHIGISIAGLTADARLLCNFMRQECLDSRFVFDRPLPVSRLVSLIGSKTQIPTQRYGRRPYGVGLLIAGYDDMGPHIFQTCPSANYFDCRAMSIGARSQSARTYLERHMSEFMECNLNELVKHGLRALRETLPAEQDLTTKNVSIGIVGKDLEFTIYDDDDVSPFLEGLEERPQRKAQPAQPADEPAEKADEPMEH

Legend:
[1] = biological target: transcriptional co-activator with PDZ-binding motif (TAZ), endogenous (human (endogenous in AGS and BGC-823)) (UniProt Q9GZV5); assay: co-IP; reciprocal co-IP of endogenous proteins with anti-PSMA1 and anti-TAZ antibodies, IgG as control; AGS and BGC-823 cells, RIPA lysis buffer, protein A/G agarose, overnight at 4 °C, immunoblot
Myc-tagged TAZ = Myc-tagged TAZ (UniProt Q9GZV5); assay: co-IP; HEK-293T cells co-transfected with Flag-PSMA1 and Myc-TAZ (or deletion mutants); immunoprecipitation with anti-Flag and anti-Myc antibodies, immunoblot

| binding [1] | binding (Myc-tagged TAZ) | Substance |
| --- | --- | --- |
| binds |  | proteasome subunit alpha type 1 (PSMA1), endogenous (from UniProt P25786 1-263) |
|  | binds | Flag-tagged PSMA1 (from UniProt P25786 1-263) |
